No constants are given. Whether binding was seen depends on the method and setting. Some binding calls cover weakened binding; strength is not graded here. One block for each binder: values may come before it.
What was measured:
human CLDN4 protein [1] = molecular target: T1, human CLDN4 protein (human, UniProt O14493 1-209); assay: flow cytometry, 10 µg/ml antibody on stably transduced HEK-293T cells
T1 sequence (looked up): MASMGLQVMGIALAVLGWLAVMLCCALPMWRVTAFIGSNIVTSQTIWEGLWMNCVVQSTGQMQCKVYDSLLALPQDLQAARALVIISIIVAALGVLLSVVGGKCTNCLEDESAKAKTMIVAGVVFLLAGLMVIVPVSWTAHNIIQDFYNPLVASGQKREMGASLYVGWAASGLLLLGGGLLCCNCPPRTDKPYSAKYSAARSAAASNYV

Amino acid sequences for entries named in this document (tags omitted).
UniProt O35054: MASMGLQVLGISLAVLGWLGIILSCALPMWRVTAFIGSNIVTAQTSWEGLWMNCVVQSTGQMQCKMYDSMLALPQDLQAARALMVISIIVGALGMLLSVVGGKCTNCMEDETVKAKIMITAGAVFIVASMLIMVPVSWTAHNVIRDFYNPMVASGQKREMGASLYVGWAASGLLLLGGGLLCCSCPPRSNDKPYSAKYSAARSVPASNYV

human CLDN9 protein [2] = molecular target: T2, human CLDN9 protein (human, UniProt O95484 1-217); assay: as above
T2 sequence (looked up): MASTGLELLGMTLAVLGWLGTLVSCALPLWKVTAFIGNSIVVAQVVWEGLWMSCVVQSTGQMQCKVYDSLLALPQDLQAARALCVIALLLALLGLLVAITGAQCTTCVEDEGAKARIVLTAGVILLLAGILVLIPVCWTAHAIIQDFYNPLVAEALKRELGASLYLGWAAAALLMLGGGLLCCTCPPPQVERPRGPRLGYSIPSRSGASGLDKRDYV

human CLDN6 protein [3] = molecular target: T3, human CLDN6 protein (human, UniProt P56747 1-220); assay: as above
T3 sequence (looked up): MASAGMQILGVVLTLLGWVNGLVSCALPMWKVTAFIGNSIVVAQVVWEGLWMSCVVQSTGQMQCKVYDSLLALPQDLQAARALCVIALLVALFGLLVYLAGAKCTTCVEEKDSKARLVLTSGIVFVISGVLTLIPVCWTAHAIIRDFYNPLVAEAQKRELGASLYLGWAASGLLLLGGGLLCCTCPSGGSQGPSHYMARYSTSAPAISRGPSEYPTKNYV

rat CLDN4 protein (rat) = molecular target: T4, rat CLDN4 protein (rat) (UniProt Q5XIT8); assay: flow cytometry (data not shown)
T4 sequence: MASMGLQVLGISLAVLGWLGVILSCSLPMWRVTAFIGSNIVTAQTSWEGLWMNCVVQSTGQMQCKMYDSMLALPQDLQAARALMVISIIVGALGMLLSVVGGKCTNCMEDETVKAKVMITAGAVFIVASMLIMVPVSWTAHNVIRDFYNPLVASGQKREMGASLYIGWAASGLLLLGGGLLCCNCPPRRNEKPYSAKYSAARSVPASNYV

[4] = molecular target: mouse CLDN4 protein (mouse) (UniProt O35054); assay: flow cytometry (data not shown)
human CLDN4 protein [5] = molecular target: T1, human CLDN4 protein; assay: flow cytometry on HEK-293T cells overexpressing the CLDN protein
human CLDN9 protein [6] = molecular target: T2, human CLDN9 protein; assay: as above
human CLDN6 protein [7] = molecular target: T3, human CLDN6 protein; assay: as above

binding (human CLDN4 protein [1]): binds | binding (human CLDN9 protein [2]): binds | binding (human CLDN6 protein [3]): binds | binding (rat CLDN4 protein (rat)): binds | binding [4]: binds | binding (human CLDN4 protein [5]): binds | binding (human CLDN9 protein [6]): binds | binding (human CLDN6 protein [7]): binds
B1: SC27.22 mouse monoclonal anti-CLDN antibody (antibody, V domains shown)
VH: QVQLQQPGAELVRPGASVKLSCKASGYTFTSYWMNWVKQRPGQGLEWIAMIHPSDSEIRLNQKFKDKATLTVDRSSSTAYMQLSSPTSEDSAVYYCARIDSYYGYLFYFDYWGQGTTLTVSS
VL: DIVLTQSPASLAVSLGQRATISCRASQTVSTSSYSYMHWFQQKPGQPPKLLIKFASNVESGVPARFSGSGSGTDFTLNIHPVEEEDISTYYCQHSWEIPWTFGGGTKLEIK

binding (human CLDN4 protein [1]): binds | binding (human CLDN9 protein [2]): binds | binding (human CLDN6 protein [3]): binds | binding (rat CLDN4 protein (rat)): binds | binding [4]: binds | binding (human CLDN4 protein [5]): binds | binding (human CLDN9 protein [6]): binds | binding (human CLDN6 protein [7]): binds
B2: SC27.1 mouse monoclonal anti-CLDN antibody (antibody, V domains shown)
VH: EVQLQESRPELVKPGASVKISCKTSGYTFTEYTLHWVKQSHGKSLEWIGGINPNNGDTIYNQKFKGKATLTVDKSSSTAYMELRSLTSEYSAVYYCARRAITVYAMDYWGQGTSVTVSS
VL: DIQMTQSSSSFSVSLGDRVTITCKASEDIYNRLAWYQQKPGNAPRLLISGATSLETGTPSRFSGSGSGKDYTLSITSLRTEDAATYYCQQYWSTPLTFGTGTKLELK

From patent US20190077876A1 (AbbVie / Abbott, published 2019)
